Data on 58 compounds can be found in PubChem BioAssay AID2685 (National Center for Advancing Translational Sciences (NCATS), 2010).

The list shows a part of the results. Further columns of the screen follow, without active or inactive calls. Most of these compounds were active or inconclusive in the main read-out, so they are no random draw. Words in brackets tell the shape of the fitted curve; partial curves, single points and poor fits give uncertain potencies.

The assay is described as follows: qHTS Assay for Lipid Storage Modulators in Drosophila S3 Cells.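 For cell number change: cells counted by Cell Tracker Red CMTPX staining in the red channel.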 To be noted: BODIPY lipid droplet fluorescence, 18-24 h; for cell number change: measured here: cell count max response, cells fed with added oleic acid. In outline:
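Laser-scanning cytometry quantifies lipid droplet accumulation (500–530 nm total intensity; droplet/cell object ratio) in oleic acid-fed (400 uM added) Drosophila S3 cells treated with a concentration series. 20 uM Triacsin C defined 100% inhibition.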
Background: Quantitative high-throughput screening tests each substance at several concentrations.

Setting [1] is: measured here: cell number channel AC50, cells fed with added oleic acid.
The mark [2] stands for this setting: measured here: lipid fluorescence (Fed channel) AC50, cells fed with added oleic acid.

Broadly, the AC50 is the concentration at which the activity in the assay is half-maximal.

As to `CCCCN1CCN=C1N(C)C`, the cell number change turned out to be 13.7%. Further, the concentration at half-maximal activity (AC50) under setting [1] is 0.82 µM [falling, full curve]. For the same compound, the half-maximal activity concentration (AC50) under setting [2] was 0.651 µM [falling, full curve].

As to `COc1ccccc1CNCc1cc(Br)ccc1OC`, the cell number change was determined as 6.34%. Moreover, the half-maximal activity concentration (AC50) under setting [2] is 4.11 µM [falling, single point].

Take `O=C(CN1CCC(NC(=O)C2CCCCC2)CC1)Nc1cccc(F)c1`: the cell number change came out at 39.5%. Also, under setting [2], the AC50 was 0.651 µM [rising, full curve, poor fit].

With `CN/C(=C\[N+](=O)[O-])NCCSCc1ccc(CN(C)C)o1`, the cell number change is -26.6%. Besides, the AC50 under setting [2] was 29.1 µM [falling, single point].

Consider `Cc1ccc(S(=O)(=O)NC(C)C(=O)N2CCOCCOCCOCCOCC2)cc1` (centres undefined), for which the cell number change was -9.52%. Besides, the AC50 under setting [2] is 29.1 µM [rising, partial curve].

In the case of `Nc1cccc(O)c1`, the cell number change was 1.24%. Also, the half-maximal activity concentration (AC50) under setting [2] is 0.92 µM [rising, full curve].

For the compound `Cc1cccc(OCC(=O)Nc2ccccc2N2CCCCC2)c1`, the cell number change is -55.3%. In addition, the AC50 under setting [1] was 29.1 µM [falling, partial curve].

As to `COc1ccccc1Nc1nc(Cl)nc(NC(C)(C)C)n1`, the cell number change worked out at 19.2%. Also, the AC50 under setting [1] is 0.00461 µM [rising, full curve, poor fit]. Besides, under setting [2], the concentration at half-maximal activity (AC50) was 10.3 µM [rising, partial curve].

In the case of `NC(=O)C(c1ccc(Cl)cc1)c1ccc(Sc2ccc(Cl)cc2)nn1` (centres undefined), the cell number change is -50.5%. For the same compound, under setting [1], the concentration at half-maximal activity (AC50) was 20.6 µM [falling, single point]. The AC50 under setting [2] is 25.9 µM [falling, single point].

As for `CCc1cccc(C)c1NC(=O)CSc1nc(-c2ccccc2F)nc2nc[nH]c12`, the cell number change worked out at 24.2%. Also, the AC50 under setting [2] is 0.0184 µM [rising, full curve, poor fit].

Take `CCCCN1C(=O)c2ccc(C(=O)Nc3cccc(C)c3C)cc2C1=O`: the cell number change is 21.8%. Also, under setting [1], the AC50 is 0.13 µM [rising, full curve, poor fit]. Further, the half-maximal activity concentration (AC50) under setting [2] was 6.51 µM [rising, partial curve].

As for `COc1ccc(CCNC(=O)CCNS(=O)(=O)c2cccc(Cl)c2)cc1OC`, the AC50 under setting [1] is 0.206 µM [falling, full curve, poor fit].

Regarding `CC(OC(=O)c1cccs1)C(=O)NCc1ccc2c(c1)OCO2` (centres undefined), the cell number change stood at 17.1%. The half-maximal activity concentration (AC50) under setting [2] is 1.16 µM [rising, partial curve].

As to `COc1ccccc1CNC(=O)C1CC2Cn3c(nc4ccccc43)C2N1C` (centres undefined), the cell number change stood at 0.818%. Further, the AC50 under setting [2] was 29.1 µM [rising, single point].

`CCOC(=O)c1cc(C(=O)n2cc(Cl)cn2)nn1C`: the cell number change was determined as 2.96%. Moreover, under setting [2], the concentration at half-maximal activity (AC50) was 18.4 µM [falling, single point].

Take `NC(=S)NNC(=O)Nc1cccc(Cl)c1`: the cell number change was determined as 10.5%.

For the compound `CCN(CC)CCOC(=O)c1ccc(NC(=O)COc2cc(=O)n(CC)c3ccccc23)cc1`, the cell number change was -88.2%. For the same compound, the half-maximal activity concentration (AC50) under setting [2] was 0.116 µM [rising, full curve, poor fit].

On to `COc1ccc(C2=NN(C(=O)c3ccccc3)C(c3cccc([N+](=O)[O-])c3)C2)cc1` (centres undefined), for which the cell number change is 32%. Also, the AC50 under setting [2] was 29.1 µM [rising, single point].

Consider `CCOC(=O)C1CCCN(CCC(=O)Nc2ccc3c(c2)CCC3)C1` (centres undefined), for which the cell number change turned out to be 25.8%. The AC50 under setting [2] was 0.58 µM [falling, single point].

In the case of `CCOC(=O)C1=C(N)OC(CCl)=C(C#N)C1c1ccsc1` (centres undefined), the cell number change came out at 24.4%.

As for `CSc1ccc(S(=O)(=O)NC2CCCCC2)cc1`, under setting [2], the AC50 is 20.6 µM [falling, partial curve].

With `O=C(Nc1ccccc1)c1ccc(NC2CCCCC2)c(S(=O)(=O)N2CCOCC2)c1`, the cell number change was 173%. The AC50 under setting [1] was 16.4 µM [rising, partial curve]. Moreover, the half-maximal activity concentration (AC50) under setting [2] was 0.164 µM [rising, full curve, poor fit].

For `COC(=O)c1ccc(C(=O)Nc2ccc(C(C)C)cc2N)cc1`, the cell number change came to 58.9%. In addition, the concentration at half-maximal activity (AC50) under setting [1] was 16.4 µM [rising, partial curve]. Further, the concentration at half-maximal activity (AC50) under setting [2] was 25.9 µM [rising, partial curve, poor fit].

On to `COc1ccccc1-c1cc(C(=O)NCc2ccc(F)cc2)no1`, for which the cell number change is 28.1%. In addition, under setting [2], the AC50 is 0.82 µM [rising, full curve].

As to `CC(C)Oc1ccc(C(=O)NC2(C(F)(F)F)NC(=O)N(CCCc3ccccc3)C2=O)cc1` (centres undefined), the cell number change came out at 15.5%. For the same compound, the concentration at half-maximal activity (AC50) under setting [2] was 29.1 µM [rising, single point].

In the case of `O=C(CCCC(=O)N/N=C/c1ccccc1C(=O)O)N/N=C/c1ccccc1C(=O)O`, the cell number change was -50.1%. For the same compound, under setting [1], the concentration at half-maximal activity (AC50) was 1.46 µM [falling, full curve]. Also, the AC50 under setting [2] is 0.259 µM [falling, partial curve, poor fit].

For `O=C(COC(=O)COc1ccccc1)Nc1cccc([N+](=O)[O-])c1`, the cell number change was determined as 19.1%. The AC50 under setting [2] was 2.59 µM [rising, single point].

In the case of `NC(=O)CC(NC(=O)Cc1ccc(Br)cc1)c1ccc(NCCN2CCCC2)c([N+](=O)[O-])c1` (centres undefined), the cell number change is 18.8%. The AC50 under setting [2] is 5.17 µM [falling, single point].

In the case of `O=C(CSc1nncn1-c1ccccc1)Nc1c(F)cccc1F`, the cell number change amounted to 8.82%. Further, the concentration at half-maximal activity (AC50) under setting [2] is 6.51 µM [rising, single point].

For the compound `O=C(NCC1CCCO1)c1cnc(Cl)c(Cl)c1` (centres undefined), the cell number change was -8.11%. The half-maximal activity concentration (AC50) under setting [2] is 5.8 µM [falling, full curve].

`CCOC(=O)C1CCCN(S(=O)(=O)c2c(C)c(C)cc(C)c2C)C1` (centres undefined): under setting [1], the concentration at half-maximal activity (AC50) was 6.51 µM [falling, single point].

`O=C(COc1ccc(Cl)cc1)Nc1ccc(CN2CCOCC2)cc1`: the cell number change is 12.5%. In addition, the concentration at half-maximal activity (AC50) under setting [2] is 0.116 µM [rising, full curve, poor fit].

In the case of `CCOC(=O)c1c(C)[nH]c(C)c1C(=O)CSc1nc2ccccc2c(=O)n1-c1ccccc1C`, the cell number change turned out to be 31.1%. Besides, the half-maximal activity concentration (AC50) under setting [1] was 0.58 µM [rising, full curve]. In addition, under setting [2], the concentration at half-maximal activity (AC50) is 9.2 µM [rising, partial curve, poor fit].

As for `O=c1c2ccccc2ncn1CCOCCOc1cccc(Br)c1`, the cell number change was -3.85%. The half-maximal activity concentration (AC50) under setting [2] was 7.31 µM [rising, partial curve].

As to `CCC(C)[C@H](N)c1nnc(SCC(=O)Nc2cccc(Cl)c2)o1` (some centres undefined), the cell number change amounted to 12.9%. Moreover, the AC50 under setting [2] was 0.082 µM [rising, single point].

For `CC(C)(C)OC(=O)[C@H](Cc1ccccc1)NC(=O)c1nc[nH]c1C(=O)NC1CCN(C(=O)OC(C)(C)C)CC1`, the cell number change is -34.7%. Further, under setting [1], the AC50 was 23.1 µM [falling, single point]. Besides, the concentration at half-maximal activity (AC50) under setting [2] was 29.1 µM [falling, single point].

Turning to `O=C(COC(=O)CCc1ccc(S(=O)(=O)N2CCCCC2)cc1)Nc1ccc2c(c1)OCO2`, the cell number change is 9.24%. For the same compound, the half-maximal activity concentration (AC50) under setting [2] was 0.00461 µM [falling, full curve, poor fit].

For `Cc1ccc(C)c(OCC(=O)NNC(=O)C2CC2)c1`, the cell number change amounted to 7.92%. The concentration at half-maximal activity (AC50) under setting [2] was 0.058 µM [rising, full curve, poor fit].

As to `Cc1ccc(-c2nn(CCC(=O)NCC3CCCO3)c(=O)c3ccccc23)cc1` (centres undefined), the cell number change was -20.5%. Under setting [2], the AC50 was 1.46 µM [rising, full curve, poor fit].

As to `Cc1ccc(S(=O)(=O)N(C)Cc2ccc(C(=O)NN=C(CC(C)C)CC(C)C)cc2)cc1`, the cell number change turned out to be 26.7%. Further, the half-maximal activity concentration (AC50) under setting [2] is 4.61 µM [rising, full curve].

Turning to `CCOc1cccc(-c2nnc(SCC(=O)Nc3cc(C)ccc3OC)n2N)c1`, the cell number change is -37.2%. Further, under setting [2], the AC50 is 14.6 µM [falling, partial curve, poor fit].

Consider `O=C1C2CC=CCC2C(=O)N1c1nc2n(n1)C(c1ccccc1)CC(c1ccccc1)N2` (centres undefined), for which the cell number change stood at 3.68%.

Turning to `O=C(CC1(c2ccc(Cl)cc2)C2CC3CC(C2)CC1C3)NCCO` (centres undefined), the cell number change was -28%. In addition, the half-maximal activity concentration (AC50) under setting [1] is 0.116 µM [falling, full curve, poor fit]. In addition, the AC50 under setting [2] is 2.31 µM [falling, partial curve, poor fit].

With `CCOc1ccccc1NC(=O)COC(=O)/C=C/c1ccc(OC)c(OC)c1`, the cell number change was 8.6%.

With `Cc1cc(C(F)(F)F)nc(SCC(=O)NC2=NC(=O)C(C)S2)n1` (centres undefined), the cell number change was 1.29%. For the same compound, the concentration at half-maximal activity (AC50) under setting [1] was 0.731 µM [falling, full curve].

On to `Clc1ccc(CNc2ccc3nnc(-c4ccccc4)n3n2)cc1`, for which the cell number change is 12.2%.

For the compound `Cc1nc(NCCO)c2nnn(Cc3ccccc3F)c2n1`, the cell number change was found to be 93.3%. Besides, the AC50 under setting [1] was 16.4 µM [rising, partial curve, poor fit]. The AC50 under setting [2] was 0.103 µM [rising, full curve, poor fit].

In the case of `COc1ccc(C(=O)NCCCc2nc3ccccc3n2Cc2cc(C)ccc2C)cc1OC`, the cell number change is -22%. The AC50 under setting [2] was 1.64 µM [rising, partial curve].

Regarding `CN(C)C(CNC(=O)c1cccs1)c1cccnc1` (centres undefined), the cell number change amounted to 51.2%.

On to `O=C(Oc1ccccc1)n1c(=S)oc2ccccc21`, for which the cell number change is -27.9%. The concentration at half-maximal activity (AC50) under setting [1] was 0.00517 µM [falling, full curve, poor fit].

With `O=C(Nc1cccc(C(=O)O)c1)/C(=C\c1ccc2c(c1)OCO2)NC(=O)c1ccccc1`, the cell number change amounted to 14%.

In the case of `CCc1ccc2oc(=O)cc(CN3CCCCC3)c2c1`, the cell number change worked out at 12.5%. Further, the half-maximal activity concentration (AC50) under setting [2] is 16.4 µM [falling, single point].

For `OC(CN1CCCCC1)CN(c1ccccc1)c1ccccc1` (centres undefined), the cell number change was -9.75%. Also, the AC50 under setting [2] was 0.116 µM [falling, full curve, poor fit].

In the case of `Cc1ccc(-c2cn3c(n2)CCCC3)cc1`, the cell number change was determined as 32.4%. Further, the AC50 under setting [1] was 32.6 µM [rising, single point]. Under setting [2], the half-maximal activity concentration (AC50) was 0.82 µM [falling, full curve].

`Cc1nn(Cc2cccc(C(=O)NC34CC5CC(CC(C5)C3)C4)c2)c(C)c1Br`: the cell number change is -23%. In addition, the AC50 under setting [2] is 29.1 µM [rising, single point].

As to `COc1ccc([C@H](NC(=O)OC(C)(C)C)C(=O)OC(C)(C)C)cc1`, the cell number change amounted to 13.6%. Besides, the concentration at half-maximal activity (AC50) under setting [1] is 2.91 µM [rising, single point]. For the same compound, under setting [2], the AC50 was 0.0651 µM [rising, full curve, poor fit].

Regarding `COc1ccc(CCN=C(N)C(C)c2ccccc2)cc1OC` (centres undefined), the cell number change is 11.3%. Also, under setting [2], the AC50 is 0.58 µM [rising, single point].

Take `O=[N+]([O-])c1ccc(Nc2nc(NC3CCCCC3)nc(N3CCCC3)n2)cc1`: the cell number change was -14.8%. Further, under setting [2], the AC50 is 0.82 µM [falling, single point].
